# In the supplement of paper PMC4604168 (melanoma cell lines):
# This is one part of the list. Many values rest on one well or one pass, so single values are uncertain.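 Cells were imaged in 1,536-well plates, and nuclei stained with an antibody against cleaved PARP were counted against all DNA-stained nuclei to give the apoptosis fraction. Screening doses were chosen to leave most cells alive, and resting and induced cleaved-PARP levels differ strongly between cell lines.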
# Columns and labels:
# Assay in all cases: cleaved PARP positive nuclei fraction relative to DMSO control; melanoma cells; higher = more apoptosis
# Settings in all cases: library dose: low library concentration; 72 h
# 501Mel = test system: 501Mel
# A101D = test system: A101D
# A2058 = test system: A2058
# A375 = test system: A375
# C32 = test system: C32
# CBRC013 = test system: CBRC013 (line from a melanoma biopsy)
# CBRC014 = test system: CBRC014 (line from a melanoma biopsy)
# CBRC016 = test system: CBRC016 (line from a melanoma biopsy)
# CBRC017 = test system: CBRC017 (line from a melanoma biopsy)
# CBRC034 = test system: CBRC034 (line from a melanoma biopsy)
# COLO792 = test system: COLO792
# COLO800 = test system: COLO800
# COLO829 = test system: COLO829
# G361 = test system: G361
# IPC-298 = test system: IPC-298
# IST-MEL1 = test system: IST-MEL1
# LB2518-MEL = test system: LB2518-MEL
# LOXIMVI = test system: LOXIMVI
SMILES,cleaved PARP positive nuclei fraction (501Mel) [%],cleaved PARP positive nuclei fraction (A101D) [%],cleaved PARP positive nuclei fraction (A2058) [%],cleaved PARP positive nuclei fraction (A375) [%],cleaved PARP positive nuclei fraction (C32) [%],cleaved PARP positive nuclei fraction (CBRC013) [%],cleaved PARP positive nuclei fraction (CBRC014) [%],cleaved PARP positive nuclei fraction (CBRC016) [%],cleaved PARP positive nuclei fraction (CBRC017) [%],cleaved PARP positive nuclei fraction (CBRC034) [%],cleaved PARP positive nuclei fraction (COLO792) [%],cleaved PARP positive nuclei fraction (COLO800) [%],cleaved PARP positive nuclei fraction (COLO829) [%],cleaved PARP positive nuclei fraction (G361) [%],cleaved PARP positive nuclei fraction (IPC-298) [%],cleaved PARP positive nuclei fraction (IST-MEL1) [%],cleaved PARP positive nuclei fraction (LB2518-MEL) [%],cleaved PARP positive nuclei fraction (LOXIMVI) [%]
"CCN(CC)CCCCNc1ncc2cc(-c3cc(OC)cc(OC)c3)c(NC(=O)NC(C)(C)C)nc2n1 + c1cc(-c2cnn3cc(-c4ccc(OCCN5CCCCC5)cc4)cnc23)ccn1 [Dorsomorphin] (first compound 0.1 µM, partner dose 0.4 µM)",81.8,178,55.8,13.2,71,190,161,36.9,127,49,106,76.1,175,142,116,86.6,98.8,103
"O=C(Nc1ccccc1)c1cc([N+](=O)[O-])ccc1Cl + CCCCCCCCCCCC1=C(O)C(=O)C=C(O)C1=O [Embelin] (first compound 2 µM, partner dose 1.2 µM)",75.8,47,15.2,103,36.9,152,82.5,96.2,92.1,70.2,127,63.6,53,137,53.1,100,88.3,50
"COc1ccc(-c2ccc3c(N4CCOCC4)nc(N4C[C@@H](C)O[C@@H](C)C4)nc3n2)cc1CO + Oc1nc(-c2ccc(C(F)(F)F)cc2)nc2c1CSCC2 [XAV939] (first compound 0.02 µM, partner dose 2 µM)",161,122,86.1,28.7,61,48,107,55.9,67,50.6,170,116,44.7,132,73.7,131,62.6,40
"COc1ccc(COc2ccc(Cc3cnc(N)nc3N)cc2OC)cc1 + O=c1cc(-c2cccc3c2Sc2ccccc2S3)oc(N2CCOCC2)c1 [KU55933] (first compound 1 µM, partner dose 1 µM)",81.9,55.5,49.6,137,46.8,55.2,95.1,114,87,156,97.9,46.5,84.2,73.4,54.8,41.3,73.5,27.8
"O=C(O)c1ccc(-c2c[nH]c3ncc(-c4ccccc4)cc23)cc1C1CCCC1 + COc1cc(N2CCC(N3CCN(C)CC3)CC2)ccc1Nc1ncc(Cl)c(Nc2ccccc2S(=O)(=O)C(C)C)n1 [NVP-TAE684] (first compound 0.16 µM, partner dose 0.08 µM)",158,38.3,117,68.8,96.9,209,115,95.9,92.2,141,117,90.1,149,212,31.9,91,79.7,52.6
"COc1cc2c(Oc3ccc4[nH]c(C)cc4c3F)ncnc2cc1OCCCN1CCCC1 [cediranib] + N#Cc1c(O)c2c(-c3ccc(-c4ccccc4O)cc3)csc2[nH]c1=O [A769662] (first compound 0.4 µM, partner dose 2 µM)",80,119,84.5,169,142,203,101,36.1,90.1,101,46.6,76.8,95.1,161,69.3,120,102,106
"O=C(O)C(=O)Nc1sc2c(c1C(=O)O)CCNC2 + CC(C)CCN1c2nc(Nc3cc(F)c(O)c(F)c3)ncc2N(C)C(=O)C1C [BID1870] (first compound 1.66667 µM, partner dose 0.2 µM)",170,42.5,23,120,67.2,383,83,146,79.7,64.5,115,158,112,108,84,80.5,77.1,24.5
"CN(C)S(=O)(=O)c1ccc2c(c1)/C(=C/c1cc3c([nH]1)CCCC3)C(=O)N2 + Cn1cc(/C=C2\C(=O)Nc3cccnc32)c2ccccc21 [GW441756] (first compound 0.4 µM, partner dose 0.4 µM)",80.4,149,64.3,187,105,112,112,77.1,84.6,87.7,22.1,89.3,43.2,83.3,38.5,102,183,107
"O=C(O)c1ccc(-c2c[nH]c3ncc(-c4ccccc4)cc23)cc1C1CCCC1 + COc1cc2ncnc(Nc3ccc(Oc4ccccc4)cc3)c2cc1OC [SrcI1] (first compound 0.16 µM, partner dose 2 µM)",58.3,122,130,187,150,243,117,196,89.1,77.4,69.4,155,59.8,184,129,60.2,143,57.9

# Only cleaved PARP positive nuclei fraction (LOXIMVI) [%] and cleaved PARP positive nuclei fraction (A2058) [%] (two entries from above):
SMILES	cleaved PARP positive nuclei fraction (LOXIMVI) [%]	cleaved PARP positive nuclei fraction (A2058) [%]
CCN(CC)CCCCNc1ncc2cc(-c3cc(OC)cc(OC)c3)c(NC(=O)NC(C)(C)C)nc2n1 + c1cc(-c2cnn3cc(-c4ccc(OCCN5CCCCC5)cc4)cnc23)ccn1 [Dorsomorphin] (first compound 0.1 µM, partner dose 0.4 µM)	103	55.8
O=C(Nc1ccccc1)c1cc([N+](=O)[O-])ccc1Cl + CCCCCCCCCCCC1=C(O)C(=O)C=C(O)C1=O [Embelin] (first compound 2 µM, partner dose 1.2 µM)	50	15.2
